{
  "source": "patent US8039648B2",
  "about": "“Compounds used as dyes comperable to Alexa Fluor 350 dyes” (Pierce Biotechnology, Inc., priority 2009, dated 2011)",
  "tested_on": "GAM and streptavidin",
  "assay": "Protein labeling, overall statements (GAM and SA not distinguished)",
  "conditions": "comparison among the DY-350 dyes",
  "data": [
    {"smiles": "Nc1ccc2c3c(c(=O)oc2c1S(=O)(=O)O)CCC3C(CC(=O)O)S(=O)(=O)[O-].[Na+]", "note": "(stereo not shown) [V07-09089, 3-(7-amino-4-oxo-6-sulfo-1,2,3,4-tetrahydro-cyclopenta[c]chromen-1-yl)-3-sulfopropionic acid bis sodium salt]", "values": [
      {"measurement": "labeling among the DY-350 dyes", "value": "lower labeling"}
    ]}
  ]
}
